According to article PMC5500889:
These are yes or no findings as the source states them, for the method shown. Binding seen in cells or lysates may run through a third protein. Some binding calls cover weakened binding; strength is not graded here. Where a sequence is shown, tags or fusion partners need not be part of it.

Protein sequences, listed by entry. Tags and fused reporters are not part of them.
UniProt Q9VCE6: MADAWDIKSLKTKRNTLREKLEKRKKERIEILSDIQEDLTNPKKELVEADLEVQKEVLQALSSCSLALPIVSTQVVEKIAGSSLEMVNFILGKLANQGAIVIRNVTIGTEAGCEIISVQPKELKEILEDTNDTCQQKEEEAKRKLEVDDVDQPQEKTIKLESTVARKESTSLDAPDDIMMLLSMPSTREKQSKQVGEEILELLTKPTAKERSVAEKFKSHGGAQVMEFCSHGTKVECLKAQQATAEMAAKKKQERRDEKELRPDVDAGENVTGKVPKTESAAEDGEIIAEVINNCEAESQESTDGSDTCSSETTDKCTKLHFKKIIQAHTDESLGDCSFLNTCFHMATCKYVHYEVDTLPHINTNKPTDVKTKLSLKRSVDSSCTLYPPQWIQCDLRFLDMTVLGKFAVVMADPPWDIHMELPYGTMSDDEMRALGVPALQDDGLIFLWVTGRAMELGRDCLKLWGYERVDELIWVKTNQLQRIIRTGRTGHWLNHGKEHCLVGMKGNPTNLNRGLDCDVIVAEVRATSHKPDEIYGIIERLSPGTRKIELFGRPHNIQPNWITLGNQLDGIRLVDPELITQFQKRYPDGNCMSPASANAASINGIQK

T1: HA-tagged METTL14 (CG7818) (Drosophila) (UniProt Q9VLP7)
T1 sequence: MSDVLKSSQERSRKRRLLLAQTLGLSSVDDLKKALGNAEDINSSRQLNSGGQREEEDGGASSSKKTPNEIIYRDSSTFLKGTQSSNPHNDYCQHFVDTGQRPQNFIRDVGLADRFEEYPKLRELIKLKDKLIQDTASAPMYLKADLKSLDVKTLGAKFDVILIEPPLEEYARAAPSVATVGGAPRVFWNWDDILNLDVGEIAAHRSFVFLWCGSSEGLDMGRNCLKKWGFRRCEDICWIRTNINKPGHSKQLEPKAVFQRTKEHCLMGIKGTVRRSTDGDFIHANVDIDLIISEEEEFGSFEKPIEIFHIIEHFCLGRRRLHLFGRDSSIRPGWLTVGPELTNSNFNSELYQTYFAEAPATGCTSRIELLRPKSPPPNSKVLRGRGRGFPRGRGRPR

T2: GFP-Nito (Spenito, Drosophila RBM15/RBM15B ortholog) (Drosophila) (UniProt Q7KMJ6)
T2 sequence: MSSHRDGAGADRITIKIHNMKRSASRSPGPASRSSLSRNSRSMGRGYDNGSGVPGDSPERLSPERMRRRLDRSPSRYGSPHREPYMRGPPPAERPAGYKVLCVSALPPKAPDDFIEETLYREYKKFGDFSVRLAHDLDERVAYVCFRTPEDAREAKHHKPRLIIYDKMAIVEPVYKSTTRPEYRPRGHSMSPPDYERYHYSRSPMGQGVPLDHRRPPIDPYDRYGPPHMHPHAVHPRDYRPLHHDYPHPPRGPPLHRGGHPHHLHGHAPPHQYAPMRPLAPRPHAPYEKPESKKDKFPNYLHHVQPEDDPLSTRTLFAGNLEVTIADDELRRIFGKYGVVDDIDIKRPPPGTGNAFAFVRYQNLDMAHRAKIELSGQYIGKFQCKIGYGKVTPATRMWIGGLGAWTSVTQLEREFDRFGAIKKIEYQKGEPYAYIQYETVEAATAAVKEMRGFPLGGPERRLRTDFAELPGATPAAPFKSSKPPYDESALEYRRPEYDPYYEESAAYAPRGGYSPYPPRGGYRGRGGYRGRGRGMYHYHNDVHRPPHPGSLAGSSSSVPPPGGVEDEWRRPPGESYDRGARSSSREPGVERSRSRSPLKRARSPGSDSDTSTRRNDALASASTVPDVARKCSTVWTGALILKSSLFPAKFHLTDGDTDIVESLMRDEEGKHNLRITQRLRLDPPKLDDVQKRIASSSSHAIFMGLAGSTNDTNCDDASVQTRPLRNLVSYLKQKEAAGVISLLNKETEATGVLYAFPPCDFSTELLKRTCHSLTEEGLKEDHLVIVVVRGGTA


Key:
[1] = molecular target: T1, HA-tagged METTL14 (CG7818) (Drosophila); assay: co-IP; HA-tagged IME4 or METTL14 (0.5 ug) and a GFP-tagged construct (1.5 ug) co-transfected into S2 cells, 3 days; lysis in 10 mM Tris-HCl pH 7.5, 300 mM NaCl, 1 mM EDTA, 1% Triton X-100; cleared lysate on HA antibody (F-7) beads 2 h; five washes with 500 mM NaCl buffer; blotting for associated proteins
[2] = molecular target: HA-tagged IME4 (Drosophila METTL3 ortholog, CG5933) (Drosophila) (UniProt Q9VCE6); assay: as above
[3] = molecular target: T2, GFP-Nito (Spenito, Drosophila RBM15/RBM15B ortholog) (Drosophila); assay: co-IP; GFP-Nito pulldown from transfected S2 cells, 2 days; lysis in 50 mM Tris pH 7.4, 150 mM NaCl, 1% NP-40; GFP-Trap beads 2 h at 4 C; two washes with lysis buffer; blotting for associated proteins

Row | Molecule | binding [1] | binding [2] | binding [3]
1 | GFP-tagged Fl(2)d (Drosophila WTAP ortholog) (protein, UniProt Q9Y091 1-536) MSVAAMTMDDQRPCMNSYDKMPPTKYEQNLNILNSSQNSGATGGPASPTPSGLEDHHHHHHPHPHHHHHQEQQQQQQQQQHLQQQQQQQQQQHAAAVAEAVAAAEQRQRLLEDEIENLKLEQVRMAQQCADAQRREKILMRRLANKEQEFQDYVSQIAEYKAQQAPTALALRTALLDPAVNLLFERLKKELKATKAKLEETQNELSAWKFTPDSNTGKRLMAKCRLLYQENEELGKMTSNGRLAKLETELAMQKSFSEEVKKSQSELDDFLQELDEDVEGMQSTILFLQQELKTTRDRIQTLEKENAQLKQAIKDEVVAPAAATNGGTNTTINKLETIHEDACMANNPTNPDCYNGNTNNEQIAAVPQIPLSDDGSNMNGNAARLARKRNYQEEEALPTVVVVPTPTPVGNNVQEAPPIREVTAPRTLPPKKSKLRGITTRRNSQLEEDHQPVTTPVAVPMIVDNAVAGMASEEAAAAAAAVNNSNTGIIPETGVQVGVPVEGGDPGAPAAPGRILTRRRSVRMQQNGSGAVDYST | binds weakly | binds weakly | –
2 | Fl(2)d (Drosophila WTAP ortholog), prey of the GFP-Nito pulldown (protein, UniProt Q9Y091 1-536) MSVAAMTMDDQRPCMNSYDKMPPTKYEQNLNILNSSQNSGATGGPASPTPSGLEDHHHHHHPHPHHHHHQEQQQQQQQQQHLQQQQQQQQQQHAAAVAEAVAAAEQRQRLLEDEIENLKLEQVRMAQQCADAQRREKILMRRLANKEQEFQDYVSQIAEYKAQQAPTALALRTALLDPAVNLLFERLKKELKATKAKLEETQNELSAWKFTPDSNTGKRLMAKCRLLYQENEELGKMTSNGRLAKLETELAMQKSFSEEVKKSQSELDDFLQELDEDVEGMQSTILFLQQELKTTRDRIQTLEKENAQLKQAIKDEVVAPAAATNGGTNTTINKLETIHEDACMANNPTNPDCYNGNTNNEQIAAVPQIPLSDDGSNMNGNAARLARKRNYQEEEALPTVVVVPTPTPVGNNVQEAPPIREVTAPRTLPPKKSKLRGITTRRNSQLEEDHQPVTTPVAVPMIVDNAVAGMASEEAAAAAAAVNNSNTGIIPETGVQVGVPVEGGDPGAPAAPGRILTRRRSVRMQQNGSGAVDYST | – | – | binds

More lines, now with the values ahead:

Row | binding [1] | binding [2] | binding [3] | Molecule
3 | binds | – | – | GFP-tagged IME4 (Drosophila METTL3 ortholog, CG5933) (from UniProt Q9VCE6 1-608)
4 | – | binds | – | GFP-tagged METTL14 (CG7818) (protein, UniProt Q9VLP7 1-397) MSDVLKSSQERSRKRRLLLAQTLGLSSVDDLKKALGNAEDINSSRQLNSGGQREEEDGGASSSKKTPNEIIYRDSSTFLKGTQSSNPHNDYCQHFVDTGQRPQNFIRDVGLADRFEEYPKLRELIKLKDKLIQDTASAPMYLKADLKSLDVKTLGAKFDVILIEPPLEEYARAAPSVATVGGAPRVFWNWDDILNLDVGEIAAHRSFVFLWCGSSEGLDMGRNCLKKWGFRRCEDICWIRTNINKPGHSKQLEPKAVFQRTKEHCLMGIKGTVRRSTDGDFIHANVDIDLIISEEEEFGSFEKPIEIFHIIEHFCLGRRRLHLFGRDSSIRPGWLTVGPELTNSNFNSELYQTYFAEAPATGCTSRIELLRPKSPPPNSKVLRGRGRGFPRGRGRPR
